# Results as given in paper PMC12040169 (PLOS Biology, 2025).
# The list shows a part of the results.
# Tested on: T1, CTL2-GFP (C. trachomatis L2/434/Bu, GFP-expressing)
# T1 construct: L2/434/Bu, GFP-expressing
# Parameters: species or system HeLa; Intracellular C. trachomatis growth in HeLa cells, bulk GFP fluorescence relative to DMSO
# Settings: bulk GFP, single well; 28.5 h, 10 µM; inhibitor
row,SMILES,% of control remaining
1,O=C(NCc1csc2c1CCCC2)N1CC(c2ccccn2)C1 [CBK307499],119.639%
2,COc1cc(C(=O)N2CCCC3(CCN(C(=O)c4ccoc4)C3)C2)cc(OC)c1OC (stereo not shown) [CBK131637],94.5043%
3,O=C(O)C1CCN(S(=O)(=O)c2ccccc2[N+](=O)[O-])CC1 [CBK265267],100%
4,CS(=O)(=O)c1ccc(-c2ccc(C(=O)NCc3cccc(C(F)(F)F)c3)cn2)cc1 [CBK158874],101.937%
5,CCCn1cc(S(=O)(=O)N2CCCC2c2ccc(Nc3cccc(C)n3)cn2)c(C)n1 (stereo not shown) [CBK286258],123.453%
6,S=C(NCC1CCCCC1)Nc1ncc(Cl)cc1Cl [CBK067053],95.6363%
7,Cc1cc(O)cc(C2CCCN(C(=O)c3cccc(F)c3)C2)n1 (stereo not shown) [CBK283440],102.049%
8,CN(C(=O)CN1CCCCC1Cn1cccn1)C1(C#N)CCCCC1 (stereo not shown) [CBK305412],108.362%
9,c1ccc(C(Nc2ncc(-c3cnccn3)c(-c3ccco3)n2)c2ccccc2)cc1 [CBK286413],108.853%
10,C(=C\c1ccccc1)/CN1CCN(CCc2ccccc2)CC1 [CBK261893],98.6926%
11,CC(C)c1ccc(S(=O)(=O)Nc2ccc(OC(F)F)cc2)cc1 [CBK044565],79.2992%
12,COCCCN(Cc1cc(F)cc(F)c1)Cc1ccccn1 [CBK282975],112.953%
13,S=C(NCCC(c1ccccc1)c1ccccc1)Nc1ccc(Cl)c(Cl)c1 [CBK263972],115.933%
14,Cc1ccc(O)c(NC(=O)Cn2nc([N+](=O)[O-])c(Br)c2C)c1 [CBK261718],104.894%
15,O=C(c1ccccc1F)N1CCC(n2cnc3cccnc32)CC1 [CBK283937],129.524%
16,O=S(=O)(Nc1nccnc1-c1cccs1)c1ccccc1Cl [CBK050775],100%
17,CSc1nc2ncnc(N3CCC(O)CC3)c2s1 [CBK022082],100%
18,CC1CCN(c2nc(-c3ccccc3O)nc3ccccc23)CC1 [CBK066899],112.274%
19,COc1ccc(CN2CCN(C(=O)c3cccc(N(C)C)c3)CC2)cc1 [CBK305713],115.754%
20,COc1ccc2c(c1)CC(=O)NC21CCN(C(=O)CCCC(=O)O)CC1 [CBK047208],119.771%
21,O=C1CCN(Cc2ccccc2)CCN1C(=O)c1cccs1 [CBK284828],111.403%
22,CC(=O)N1CCN(c2ccc(NC(=O)C3C(C(=O)O)C3(C)C)cc2)CC1 (stereo not shown) [CBK300545],148.934%

# A second format for some results above:
row	SMILES	% of control remaining
10	C(=C\c1ccccc1)/CN1CCN(CCc2ccccc2)CC1 [CBK261893]	98.6926%
11	CC(C)c1ccc(S(=O)(=O)Nc2ccc(OC(F)F)cc2)cc1 [CBK044565]	79.2992%
12	COCCCN(Cc1cc(F)cc(F)c1)Cc1ccccn1 [CBK282975]	112.953%
13	S=C(NCCC(c1ccccc1)c1ccccc1)Nc1ccc(Cl)c(Cl)c1 [CBK263972]	115.933%
14	Cc1ccc(O)c(NC(=O)Cn2nc([N+](=O)[O-])c(Br)c2C)c1 [CBK261718]	104.894%
15	O=C(c1ccccc1F)N1CCC(n2cnc3cccnc32)CC1 [CBK283937]	129.524%
